# Where “and” joins values, the source holds several entries; their conditions need not be identical. Equal values may be shown once. About 3,700 (1.2%) of roughly 300,000 compounds were called active. Inconclusive means that the source gave no clear call. Such entries were picked first, then a sample of the others. The call rests on the fitted dose curve; tested in HEK293 cells. Potencies beside an inconclusive call are fits to weak or partial responses and may not hold up.
# Assay: qHTS for Inhibitors of binding or entry into cells for Lassa Virus; further: nearly all actives have a fitted effect of over 50% in size
# Conditions: Lassa virus pseudotype entry inhibition, cell reporter; series mostly up to 37.9 µM
# Potency means the concentration at half of the fitted maximal effect.
row,Structure (SMILES),Potency
1,CC(=O)Nc1nonc1-c1nnc(SCC(=O)Nc2ccc(C)cc2C)n1C,inactive
2,O=C(O)CCCNc1n[nH]c(=O)[nH]c1=O,"inconclusive: 35.5 µM [inhibitor, single point]"
3,O=C(O)c1ccccc1OC(C(=O)Nc1cc(Cl)cc(Cl)c1)c1ccccc1 (centres undefined),inactive
4,Cc1cccc2cc(C(c3nnnn3Cc3ccccc3)N3CCN(c4ccccc4)CC3)c(=O)[nH]c12 (centres undefined),"inconclusive: 6.51 µM [inhibitor, full curve]"
5,O=C(Nc1ccc(SC(F)F)cc1)c1cc(-c2ccc3c(c2)OCCO3)on1,"inconclusive: 2.82 µM [activator, full curve]"
6,N#Cc1ccc(CSc2nnc(-c3ccccn3)n2-c2ccc(Cl)cc2)cc1,"inconclusive: 35.5 µM [inhibitor, single point]"
7,CC(NC(=O)COC(=O)c1ccc2ccccc2n1)C1CC2CCC1C2 (centres undefined),"inconclusive: 5.62 µM [inhibitor, single point]"
8,NC(=O)CSc1nccn1Cc1ccccc1,inactive
9,CCOc1cc(/C=N/NC(=O)CNc2cccc(C)c2)ccc1OC(=O)c1ccccc1,active: 15.8 µM
10,COc1ccc(NC(=O)COC(=O)CNC(=O)c2cc(OC)c(OC)c(OC)c2)cc1,"inconclusive: 20 µM [activator, partial curve, poor fit]"
11,COc1cccc(CNC(=O)c2cc(=O)[nH]c3ccc(S(=O)(=O)N4CCCCC4)cc23)c1,"inconclusive: 5.62 µM [inhibitor, single point]"
12,Cc1[nH]c2ccccc2c1C(=O)CSc1nc2ncc(Cl)cc2[nH]1,"inconclusive: 10 µM [inhibitor, partial curve, poor fit]"
13,COCC(C)N=C1NN=C(c2ccc(NC(C)=O)cc2)CS1 (centres undefined),inactive
14,Cc1ccc(-c2nn(CC(=O)NC3CCCCC3)c3c2cnc2ccc(F)cc23)cc1C,"inconclusive: 0.562 µM [inhibitor, full curve, poor fit]"
15,O=C(CSc1nc2c(cnn2-c2ccc(F)cc2)c(=O)[nH]1)Nc1ccc(Br)cc1,"inconclusive: 35.5 µM [activator, single point]"
16,CCCCOc1ccc(-c2cc3c(=O)n(CC(=O)Nc4ccc(Cl)cc4Cl)ccn3n2)cc1,inactive
17,CCOC(=O)N1CCN(CC(O)COCCC23CC4CC(CC(C4)C2)C3)CC1 (centres undefined),inactive
18,OCCN(Cc1ccccc1)Cc1ncccc1O,"inconclusive: 35.5 µM [activator, single point]"
19,COc1ccc(/C=C/C(=O)NC(=S)NNC(=O)Cc2cccs2)cc1OC,inactive
20,Cc1nnc(SCC(=O)Nc2ccc(-c3nc4ccccc4s3)cc2)s1,active: 10 µM
21,COc1cccc(-c2cc(=O)c3ccccc3o2)c1N,"inconclusive: 0.073 µM [activator, full curve, poor fit]"
22,Cc1cccc(N=c2c([N+](=O)[O-])nn(-c3ccc(Cl)cc3)n2O)c1,inactive
23,Cc1ccc2oc(C(=O)N(Cc3ccccc3F)C3CCS(=O)(=O)C3)c(C)c2c1 (centres undefined),inactive

row,Structure (SMILES),Potency
1,Cc1ccc(S(=O)(=O)c2c(N)n(Cc3ccco3)c3nc4ccccc4nc23)cc1,"inconclusive: 29.1 µM [inhibitor, single point]"
2,CC(Sc1nnc2ccccn12)C(=O)Nc1ccc2c(c1)OCCO2 (centres undefined),inactive
3,COc1ccc(Cl)cc1-c1nc(SCC(=O)NC(C)C)n[nH]1,"inconclusive: 3.55 µM [activator, full curve, poor fit]"
4,COC(=O)c1nnn(-c2nonc2N)c1CN1CCc2ccccc21,"inconclusive: 35.5 µM [inhibitor, single point]"
5,COc1ccc(C2CC(=O)c3cnc(N4CCN(Cc5ccccc5)CC4)nc3C2)cc1 (centres undefined),"inconclusive: 15.8 µM [inhibitor, partial curve, poor fit]"
6,CN(C)c1ccc(C(c2nnnn2CCOC(=O)Nc2ccc(Cl)cc2)N2CCOCC2)cc1 (centres undefined),inactive
7,COC(CN(C)S(=O)(=O)c1cc2c3c(c1)CCN3C(=O)CC2)OC,"inconclusive: 12.6 µM [activator, single point]"
8,Cc1ccc(S(=O)(=O)Nc2nc(C)c(C(=O)N/N=C/c3ccccc3)s2)cc1,"inconclusive: 32.6 µM [inhibitor, single point]"
9,COCCCNC(=O)C(=O)N/N=C/c1cc2c(cc1Br)OCO2,"inconclusive: 20 µM [inhibitor, single point]"
10,COc1cc(-c2nc3ccc(C)cn3c2Nc2ccc(Cl)cc2)ccc1O,"inconclusive: 35.5 µM [inhibitor, single point]"
11,Cc1ccc(NC(=S)NC(NC(=O)c2ccccc2)C(Cl)(Cl)Cl)c(C)c1 (centres undefined),"inconclusive: 20.6 µM [inhibitor, partial curve, poor fit]"
12,COc1cccc(C(=O)NC2=NC(c3ccc(N(C)C)cc3)CC(=O)N2)c1 (centres undefined),"inconclusive: 0.794 µM [inhibitor, full curve]"
13,CCn1c(NCc2cccc(Cl)c2)nc2ccccc21,inactive
14,C=CCNC(=O)/C(C#N)=C/c1ccc(SC)cc1,"inconclusive: 14.1 µM [activator, single point]"
15,O=c1cc(-c2ccc(O)cc2)oc2ccc(O)cc12,"inconclusive: 11.2 µM [inhibitor, partial curve, poor fit]"
16,O=C(/C=C/c1ccc(S(=O)(=O)N2CCOCC2)cc1)NCc1ccccc1Cl,"inconclusive: 13 µM [inhibitor, single point]"
17,CC(C)(C)c1nc2ccccc2c2nnc(SCC(=O)Nc3nccs3)n12,"inconclusive: 7.3 µM [inhibitor, partial curve]"
18,CCOC(=O)N1CCN(S(=O)(=O)c2ccc(F)c(C(=O)Nc3ccc(C)c(Cl)c3)c2)CC1,"inconclusive: 16.4 µM [inhibitor, partial curve, poor fit] and inconclusive: 3.98 µM [activator, partial curve, poor fit]"
19,COc1ccc(OC)c(NC(=O)CC2SC(=Nc3ccc(F)cc3)N(CCC3=CCCCC3)C2=O)c1 (centres undefined),"inconclusive: 35.5 µM [inhibitor, single point]"
20,COc1ccc(CC(=O)OCC(=O)Nc2ncc(Cl)cc2Cl)cc1OC,inactive
21,O=C(O)CCC(=O)NC1CCCCC1,inactive
22,COCCN(CCOC)C(=O)c1cc2c(=O)n3ccccc3nc2n1C,inactive
23,Nn1c(COc2ccccc2)nc2ccccc2c1=O,inactive

# Filtered by structure: those above with a furan ring, fused or not (2)
row,Structure (SMILES),Potency
23,Cc1ccc2oc(C(=O)N(Cc3ccccc3F)C3CCS(=O)(=O)C3)c(C)c2c1 (centres undefined),inactive
1,Cc1ccc(S(=O)(=O)c2c(N)n(Cc3ccco3)c3nc4ccccc4nc23)cc1,"inconclusive: 29.1 µM [inhibitor, single point]"

# Continued.

row,Structure (SMILES),Potency
1,O=C(NCc1ccc2c(c1)CCN2C(=O)c1ccncc1)c1ccc(Cl)cc1,"inconclusive: 35.5 µM [inhibitor, single point]"
2,COc1cccc(-c2nnc3n(Cc4ccccc4Cl)c(=O)c4ccccc4n23)c1O,"inconclusive: 2.82 µM [inhibitor, partial curve, poor fit]"
3,CCN(CC)S(=O)(=O)c1ccc(N2CCOCC2)c(NC(=O)c2cc(-c3ccccn3)nc3ccccc23)c1,"inconclusive: 4.47 µM [inhibitor, full curve]"
4,O=S(=O)(c1ccc(-c2csc(Nc3ccc(F)cc3)n2)cc1)N1CCCC1,"inconclusive: 4.61 µM [inhibitor, partial curve, poor fit]"
5,COc1ccccc1CNC(=O)c1cc2c(C)nn(Cc3ccc(F)cc3)c2s1,inactive
6,COCCCNC(=O)C1CCN(c2cc(C)nc3c(-c4ccc(OC)c(OC)c4)c(C)nn23)CC1,inactive
7,COc1ccc(Cl)cc1NC(=O)c1nn(C)c2c1CS(=O)(=O)c1ccccc1-2,inactive
8,CCCCCN(C(=O)CCC(=O)OCC(=O)c1ccc(C(C)(C)C)cc1)c1c(N)n(CCCC)c(=O)[nH]c1=O,"inconclusive: 15.8 µM [inhibitor, single point]"
9,CCOc1cc(/C=C2/C(=O)ON=C2C)ccc1OCc1ccccc1,inactive
10,CCOc1ccc(S(=O)(=O)NC(C)(C)C)cc1-c1nc2c(C(C)(C)C)nn(C)c2c(=O)[nH]1,active: 20.6 µM
11,CCc1cc2c(N3CCN(C(=O)c4ccco4)CC3)ncnc2s1,"inconclusive: 1.26 µM [inhibitor, single point]"
12,Cc1ccc(S(=O)(=O)Cn2nnnc2C(C(C)C)N2CCN(c3nc4ccccc4s3)CC2)cc1 (centres undefined),"inconclusive: 5.01 µM [inhibitor, full curve, poor fit]"
13,O=C(OCC(=O)N1CCCCCC1)c1ccc(F)cc1F,inactive
14,Cc1ccc2oc(=O)cc(CN3CCC(C)CC3)c2c1,"inconclusive: 29.1 µM [activator, partial curve, poor fit]"
15,COc1ccccc1N1CCN(S(=O)(=O)CCNC(=O)CC2CCCCC2)CC1,"inconclusive: 35.5 µM [inhibitor, single point]"
16,CCOCC(=O)Nc1cccc(OC)c1,inactive
17,CCN1C(=S)SC(=O)C1=C1C=C(C)N(Cc2ccco2)C(C)=C1,"inconclusive: 15.8 µM [inhibitor, single point]"
18,CCCCn1c(=S)[nH]c2ccccc2c1=O,"inconclusive: 15.8 µM [activator, partial curve, poor fit]"
19,COc1ccccc1NC(=S)NCCc1ccc(S(N)(=O)=O)cc1,inactive
20,O=C(CC1C(=O)NCCN1Cc1cccc(Oc2ccccc2)c1)NCCc1ccccn1 (centres undefined),active: 6.31 µM
21,COC(=O)c1ccc(OC)c(CSc2nnc(-c3ccc(C(C)(C)C)cc3)o2)c1,"inconclusive: 18.3 µM [inhibitor, single point]"
22,Cc1ccc(C(=O)NNC(=O)Cc2ccccc2)cc1,"inconclusive: 16.4 µM [activator, partial curve, poor fit]"
23,O=C(COc1ccc(Cl)cc1Cl)Nc1cccnc1,inactive

# Source: PubChem BioAssay AID540256 (National Center for Advancing Translational Sciences (NCATS), 2011)
